From PubChem BioAssay AID1671190 (National Center for Advancing Translational Sciences (NCATS), 2021)
The campaign covered roughly 580,000 compounds. About 6,100 (1.1%) were called active. The inconclusive results got no clear call from the source; some entries with a clear call stand among them for comparison. Calls come from the whole dose curve; as a rule, active = well fitted inhibition curve with a large enough effect; inconclusive = small, poorly fitted or top-dose-only effect, or another doubt; inactive = no such curve, though single readings can be large or run the other way. Potencies of inconclusive entries are doubtful fits and often do not repeat.

By UniProt entry, the sequences of proteins in these tests, tags left out.
UniProt P18054, whole entry, looked up: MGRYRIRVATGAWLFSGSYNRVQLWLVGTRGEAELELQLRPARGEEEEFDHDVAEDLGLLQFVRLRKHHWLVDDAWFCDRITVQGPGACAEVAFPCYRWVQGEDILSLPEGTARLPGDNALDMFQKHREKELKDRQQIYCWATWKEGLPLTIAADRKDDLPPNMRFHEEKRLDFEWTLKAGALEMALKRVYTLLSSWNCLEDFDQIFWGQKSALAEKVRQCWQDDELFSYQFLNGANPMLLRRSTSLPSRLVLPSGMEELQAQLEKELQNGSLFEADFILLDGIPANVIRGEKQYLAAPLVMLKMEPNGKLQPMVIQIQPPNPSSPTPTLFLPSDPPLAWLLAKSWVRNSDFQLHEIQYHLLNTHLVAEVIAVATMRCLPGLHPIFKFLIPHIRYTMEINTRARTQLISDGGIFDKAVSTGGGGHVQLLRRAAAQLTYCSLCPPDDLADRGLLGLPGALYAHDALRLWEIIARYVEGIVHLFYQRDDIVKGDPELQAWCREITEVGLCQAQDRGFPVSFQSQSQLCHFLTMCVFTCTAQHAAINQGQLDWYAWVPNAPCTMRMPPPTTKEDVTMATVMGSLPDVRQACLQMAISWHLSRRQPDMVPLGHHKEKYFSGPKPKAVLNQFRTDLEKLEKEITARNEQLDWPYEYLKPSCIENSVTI

Biological target: Polyunsaturated fatty acid lipoxygenase ALOX12 (Homo sapiens) (UniProt P18054)
Assay: Primary qHTS assay for inhibitors of human arachidonate 12S-lipoxygenase (ALOX12): Round 2
Settings: purified 12hLO, xylenol orange hydroperoxide absorbance; series mostly up to 108 µM
Procedure, shortened: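 Purified human 12hLO at 150 nM in 25 mM Hepes, 0.01% Triton X-100, pH 7.0, preincubated 15 min at room temperature with compound. Reaction started with 40 uM arachidonic acid, 30 min at room temperature. Hydroperoxide measured by Fe-xylenol orange, 573/405 nm absorbance ratio.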
Potency is the fitted concentration of half-maximal effect.

SMILES	Potency
COc1cc(NC(=O)c2c(-n3cnnn3)sc(C)c2C)cc(OC)c1	inactive
COc1cc(/C=C(\C#N)C(=O)N2CCOCC2)cc(Br)c1O	inactive
Cn1cc(-c2coc3c(C(=O)NCc4cccc(Cl)c4)cccc23)cn1	inconclusive: 50.1 µM [inhibitor, partial curve, poor fit]
O=C(Nc1ccc(-c2csc(Nc3cccc(C(F)(F)F)c3)n2)cc1)c1ccccc1	inactive
Cn1c(=O)[nH]c(=O)c2c1nc(Br)n2CCC(=O)c1ccccc1	inactive
CCCCN([C@H](CO)C(C)C)S(=O)(=O)c1ccccc1Br	inactive
Cc1cc(C)c(NC(=S)N(CCN(C)C)Cc2cccs2)c(C)c1	inconclusive: 89.1 µM [inhibitor, single point]
Cn1cc(CN[C@H]2[C@H](O)[C@H](O)C[C@@H]2c2cccnc2)c2ccccc21	active: 44.7 µM
CCOc1cc(NC(=S)NCCCOC)c(OCC)cc1NC(=O)c1ccco1	inconclusive: 79.4 µM [inhibitor, partial curve, poor fit]
CC(=O)Nc1ccc(C(=O)CSc2nc3ccccc3n2CC(=O)N2CCCC2)cc1	inactive
Cc1ccc(NC(=O)CC2CC3CCC2C3)cc1 (stereo unspecified)	inconclusive: 7.08 µM [inhibitor, full curve, poor fit]
COc1cc(NS(=O)(=O)c2ccc(N/C=C\C(=O)c3ccc(C)cc3)cc2)nc(OC)n1	inconclusive: 31.6 µM [inhibitor, full curve, poor fit]
COCCN(CCOC)C(=O)c1ccc(Cl)cc1F	inconclusive: 5.62 µM [inhibitor, full curve, poor fit]
Cc1ccc(-n2c(C3CCN(C(=O)c4nn(C)c5ccccc45)CC3)n[nH]c2=O)cc1	inconclusive: 20 µM [inhibitor, partial curve]
O=[N+]([O-])c1cc(-c2ccc(C(=S)N3CCOCC3)o2)ccc1Cl	active: 12.6 µM
CCOC(=O)C(=NNc1ccc(C)cc1)C(=O)OCC	inconclusive: 0.708 µM [inhibitor, full curve, poor fit]
O=C(C[n+]1ccc(Cc2ccccc2)cc1)Nc1ccc([N+](=O)[O-])cc1Cl	inactive
COc1ccc2c(c1)C(C[C@H]1CN(C(=O)C3CCC3)CC[C@H]1CC(=O)O)=NCC2	inconclusive: 25.1 µM [inhibitor, full curve, poor fit]
Cc1ccc(C(=O)C[n+]2ccc3ccccc3c2)cc1	inactive
Cc1cnc(-c2ccncc2)n1C1CCCN(C(=O)C2(c3ccccc3)CC2)C1 (stereo unspecified)	inconclusive: 89.1 µM [inhibitor, single point]
CC(=O)/C(C#N)=C1\NC(=O)C(Cc2ccc(F)cc2)S1 (stereo unspecified)	inconclusive: 112 µM [inhibitor, partial curve, poor fit]
CSCCC(C(=O)NCc1ccccc1)n1c(Cc2cc(F)cc(F)c2)nc2ccccc21 (stereo unspecified)	inactive

A section of the results above, for reference:
SMILES	Potency
CCOc1cc(NC(=S)NCCCOC)c(OCC)cc1NC(=O)c1ccco1	inconclusive: 79.4 µM [inhibitor, partial curve, poor fit]
CC(=O)Nc1ccc(C(=O)CSc2nc3ccccc3n2CC(=O)N2CCCC2)cc1	inactive
Cc1ccc(NC(=O)CC2CC3CCC2C3)cc1 (stereo unspecified)	inconclusive: 7.08 µM [inhibitor, full curve, poor fit]
COc1cc(NS(=O)(=O)c2ccc(N/C=C\C(=O)c3ccc(C)cc3)cc2)nc(OC)n1	inconclusive: 31.6 µM [inhibitor, full curve, poor fit]
COCCN(CCOC)C(=O)c1ccc(Cl)cc1F	inconclusive: 5.62 µM [inhibitor, full curve, poor fit]
Cc1ccc(-n2c(C3CCN(C(=O)c4nn(C)c5ccccc45)CC3)n[nH]c2=O)cc1	inconclusive: 20 µM [inhibitor, partial curve]
O=[N+]([O-])c1cc(-c2ccc(C(=S)N3CCOCC3)o2)ccc1Cl	active: 12.6 µM
CCOC(=O)C(=NNc1ccc(C)cc1)C(=O)OCC	inconclusive: 0.708 µM [inhibitor, full curve, poor fit]
O=C(C[n+]1ccc(Cc2ccccc2)cc1)Nc1ccc([N+](=O)[O-])cc1Cl	inactive
COc1ccc2c(c1)C(C[C@H]1CN(C(=O)C3CCC3)CC[C@H]1CC(=O)O)=NCC2	inconclusive: 25.1 µM [inhibitor, full curve, poor fit]
Cc1ccc(C(=O)C[n+]2ccc3ccccc3c2)cc1	inactive
Cc1cnc(-c2ccncc2)n1C1CCCN(C(=O)C2(c3ccccc3)CC2)C1 (stereo unspecified)	inconclusive: 89.1 µM [inhibitor, single point]
CC(=O)/C(C#N)=C1\NC(=O)C(Cc2ccc(F)cc2)S1 (stereo unspecified)	inconclusive: 112 µM [inhibitor, partial curve, poor fit]

(next part)

SMILES	Potency
Nc1ccc(C(c2ccccc2)(c2ccccc2)c2ccc(N)cc2)cc1	inconclusive: 56.2 µM [inhibitor, single point]
CCOc1cc(S(=O)(=O)n2ccnc2C(C)C)ccc1Cl	inconclusive: 50.1 µM [inhibitor, partial curve, poor fit]
O=C(NCCc1ccccc1)/C(=C/c1ccco1)c1ccccc1	inconclusive: 100 µM [inhibitor, partial curve, poor fit]
Cc1nnc2sc(-c3cccc4ccccc34)nn12	inactive
O=C(NC(=S)Nc1ccccc1[N+](=O)[O-])c1ccccc1	inconclusive: 100 µM [inhibitor, single point]
CCCCC(=O)Nc1ccc(C(=O)NNC(=O)CCc2ccccc2)cc1	inactive
O=S(=O)(c1ccccc1)c1nc(-c2cccs2)oc1SCc1ccccc1F	inconclusive: 79.4 µM [inhibitor, partial curve, poor fit]
COc1ccc(Oc2c(Cl)cnn(-c3ccc(Cl)c(Cl)c3)c2=O)cc1	inconclusive: 6.31 µM [inhibitor, partial curve, poor fit]
O=C(C1=C[C@H](C2CCCCC2)C[C@H](OCCCCO)O1)N1CCN(Cc2ccccc2)CC1	inconclusive: 39.8 µM [inhibitor, partial curve, poor fit]
CCOC(=O)C1=CN(CC(=O)NC(C)CCc2ccccc2)S(=O)(=O)N=C1C (stereo unspecified)	inactive
CCC(C)(C)C1CCc2c(sc(NC(=O)C3c4ccccc4Oc4ccccc43)c2C(N)=O)C1 (stereo unspecified)	inactive
O=C(NCc1cccn1Cc1ccc(F)cc1)NC12CC3CC(CC(C3)C1)C2	inconclusive: 39.8 µM [inhibitor, partial curve, poor fit]
CN(C(=O)Cn1cc(C#N)c2ccccc21)C1CCCCC1	inconclusive: 39.8 µM [inhibitor, single point]
O=C(O)C1=NN(c2ccccc2)C(=O)CC1	inconclusive: 50.1 µM [inhibitor, single point]
COc1ccc(Nc2cc(C(=O)N3CCOCC3)c3ccccc3n2)cc1	inconclusive: 35.5 µM [inhibitor, partial curve, poor fit]
COc1cc(C(=O)NC(=S)NNC(=O)[C@H]2C[C@@H]2c2ccccc2)cc(OC)c1OC	active: 31.6 µM
CC(C)NC(=O)/C(=C/c1ccco1)c1ccccc1	inactive
O=C(CCC1CCN(C(=O)c2ccccc2F)CC1)NC1CC1	inactive
Cc1ccc(C)c(N2CCN(CCCNC(=O)Cn3ncc4c5ccccc5n(C)c4c3=O)CC2)c1	inconclusive: 126 µM [inhibitor, partial curve, poor fit]
COc1ccc(Nc2ncnc3c2oc2ccccc23)cc1	inconclusive: 39.8 µM [inhibitor, partial curve, poor fit]
Cc1ccc(N2C(=O)[C@@H]3[C@H](C2=O)C2c4ccccc4C=CN2[C@@H]3C(=O)c2ccco2)cc1 (stereo partly specified)	inconclusive: 50.1 µM [inhibitor, single point]
CCc1ccc(N2CC(C(=O)Nc3cccc(C(=O)NC4CC4)c3)CC2=O)cc1 (stereo unspecified)	inconclusive: 100 µM [inhibitor, single point]

SMILES	Potency
Cc1ccc(-c2nnc(C(C)Sc3nnc4ccccn34)o2)cc1 (stereo unspecified)	inconclusive: 22.4 µM [inhibitor, partial curve, poor fit]
CC1(C)CC(=O)C2=C(C1)OC(N)=C(C#N)C2c1ccc(-c2ccccc2Cl)o1 (stereo unspecified)	inconclusive: 50.1 µM [inhibitor, partial curve, poor fit]
COc1cc(/C=N/NC2=NS(=O)(=O)c3ccccc32)ccc1OC(C)=O	inconclusive: 7.08 µM [inhibitor, partial curve, poor fit]
COc1ccccc1NC(=O)CC1C(=O)Nc2nc3ccccc3n21 (stereo unspecified)	inconclusive: 39.8 µM [inhibitor, partial curve, poor fit]
CC(c1ccccc1)C1OCC(C[N+]2(C)CCCCC2)O1 (stereo unspecified)	inconclusive: 44.7 µM [inhibitor, partial curve, poor fit]
CCOCc1nnc(NC(=O)c2c(-c3ccccc3)noc2C)s1	inconclusive: 39.8 µM [inhibitor, partial curve, poor fit]
COc1ccc(-c2cc(C(=O)N(C)Cc3nc4ccccc4c(=O)[nH]3)c3ccccc3n2)cc1OC	inconclusive: 112 µM [inhibitor, partial curve, poor fit]
CC(C)Cn1cnc2c(c1=N)C(c1ccccc1)C1=C(CC(C)(C)CC1=O)O2 (stereo unspecified)	inconclusive: 50.1 µM [inhibitor, single point]
CCn1nnnc1SCC(=O)N1c2ccccc2NC(=O)CC1C (stereo unspecified)	inactive
CCOc1ccc(NC(=O)CCn2cnc3onc(-c4ccc(F)cc4)c3c2=O)cc1	inconclusive: 50.1 µM [inhibitor, partial curve, poor fit]
CC1=C(C(=O)OC(C)C)[C@@H](c2ccc(C)o2)NC(=O)N1	inactive
CC(C)(C)C1CCN2CCC[C@](c3ccccc3)(C1)C2OCCCO (stereo partly specified)	inconclusive: 44.7 µM [inhibitor, partial curve, poor fit]
Cc1cccc(NC(=S)NCc2ccc(Cl)cc2)c1	inconclusive: 44.7 µM [inhibitor, partial curve, poor fit]
Cn1c(Cn2cccn2)nnc1C1CC(Nc2ncnc3sccc23)C1 (stereo unspecified)	inactive
COc1ccc2[nH]cc(CCNc3cc(-c4ccccc4C)ncn3)c2c1	inconclusive: 50.1 µM [inhibitor, partial curve, poor fit]
COc1cc(OC)cc(C(=O)NC(=S)Nc2ccc(N3CCCC3)cc2)c1	active: 44.7 µM
Cc1oc2cc(OC(=O)c3cccs3)ccc2c(=O)c1-c1ccccc1	inconclusive: 8.91 µM [inhibitor, full curve, poor fit]
COCCNC(=S)N1CCC2CC1c1cc(-c3ccc4c(c3)OCO4)ccc12 (stereo unspecified)	active: 28.2 µM
Cc1cccc(C)c1NC(=O)Cn1c(=O)n(CC2CCC(C(=O)NCCc3ccccc3)CC2)c(=O)c2ccccc21 (stereo unspecified)	inconclusive: 126 µM [inhibitor, partial curve, poor fit]
C[C@@H]1CN([C@H](C)CO)C(=O)CCCn2nncc2CO[C@@H]1CN(C)C(=O)Nc1cccc2ccccc12	inactive
O=C(Cc1c[nH]c2ccccc12)Nc1ccc(Nc2cccnc2)c(-c2cccc(Cl)c2)c1	inconclusive: 7.08 µM [inhibitor, full curve, poor fit]
CC(C)Sc1nc(N(CCO)CCO)c2sc3c(c2n1)COC(C)(C)C3	inactive
